Test results as given in the supplement of paper PMC3682954.
Where “and” joins values, the source holds several entries; their conditions need not be identical. Identical values can stand only once. Counter-ions that a name gives are not always drawn. ± gives the standard deviation of the averaged measurements. Some of the results follow. Many values rest on one well or one pass, so single values are uncertain.

Test system: RAW 264.7
Assay: cell viability (MTT) relative to vehicle control; higher = more viable cells
Conditions: stimulus: HMGB1 5 ug/ml, 18 h
[1] = compound concentration: 1 ug/ml

| SMILES | cell viability (compound concentration: 3 uM) | cell viability [1] |
| --- | --- | --- |
| NS(=O)(=O)c1cc2c(cc1C(F)(F)F)NC(Cc1ccccc1)NS2(=O)=O (stereo not given) [Bendroflumethiazide] | 131% | – |
| NS(=O)(=O)c1cc2c(cc1C(F)(F)F)NC(Cc1ccccc1)NS2(=O)=O (stereo not given) | 103% | – |
| O=C(CCCCCCCCCCCCC1CCCC1)Nc1ccc(S(=O)(=O)c2ccc(NC(=O)CCCCCCCCCCCCC3CCCC3)cc2)cc1 | 72.4% | – |
| CC(CN1c2ccccc2Sc2ccccc21)N(C)C (stereo not given) | 110% | – |
| CC(CN1c2ccccc2Sc2ccccc21)N(C)C (stereo not given) [Promethazine] | 110% | – |
| CC(CN1c2ccccc2Sc2ccccc21)N(C)C (stereo not given) [Promethazine hydrochloride] | 96.1 ± 1.4% | – |
| Cn1nnnc1SCC1=C(C(=O)O)N2C(=O)[C@@H](NC(=O)[C@H](OC=O)c3ccccc3)[C@H]2SC1 | 105% | – |
| NC[C@@H]1O[C@H](c2ccccc2)Cc2c1ccc(O)c2O | 111% | – |
| O=C1CC2(CCCC2)CC(=O)N1CCNCC1COc2ccccc2O1 (stereo not given) | 104% | – |
| CCOC(=O)[C@H](CCc1ccccc1)N[C@@H](C)C(=O)N1CCC[C@H]1C(=O)O [Enalapril] | 105% | – |
| CCOC(=O)[C@H](CCc1ccccc1)N[C@@H](C)C(=O)N1CCC[C@H]1C(=O)O | 107% | – |
| CCOC(=O)[C@H](CCc1ccccc1)N[C@@H](C)C(=O)N1CCC[C@H]1C(=O)O [Enalapril maleate] | 104% | – |
| CO/N=C(\C(=O)N[C@@H]1C(=O)N2C(C(=O)O)=C(C[N+]3(C)CCCC3)CS[C@H]12)c1csc(N)n1 [Cefepime hydrochloride] | 94% | – |
| NOCC(=O)O [O-(Carboxymethyl)hydroxylamine hemihydrochloride] | 106% | – |
| C[C@]12CC[C@@H]3c4ccc(O)cc4CC[C@H]3[C@@H]1C[C@H](O)[C@@H]2O | 101% | – |
| CC(Oc1c(Cl)cccc1Cl)C1=NCCN1 (stereo not given) [Lofexidine] | 92.5 ± 12% | – |
| CC(Oc1c(Cl)cccc1Cl)C1=NCCN1 (stereo not given) | 102% | – |
| CC1=C(CC(=O)O)c2cc(F)ccc2/C1=C\c1ccc([S+](C)[O-])cc1 (stereo not given) | 101% | – |
| CC1=C(CC(=O)O)c2cc(F)ccc2/C1=C\c1ccc([S+](C)[O-])cc1 (stereo not given) [Sulindac] | 105 ± 12% | – |
| CC[N+](CC)(CC)CCC(O)(c1ccccc1)C1CCCCC1 (stereo not given) [Tridihexethyl chloride] | 95.6% | – |
| Cc1noc(NS(=O)(=O)c2ccc(N)cc2)c1C [Sulfisoxazole] | 93.5% | – |
| Cc1noc(NS(=O)(=O)c2ccc(N)cc2)c1C | 96.9% | – |

| SMILES | cell viability (compound concentration: 3 uM) | cell viability [1] |
| --- | --- | --- |
| CCc1cccc2c3c([nH]c12)C(CC)(CC(=O)O)OCC3 (stereo not given) | 107% | – |
| CCc1cccc2c3c([nH]c12)C(CC)(CC(=O)O)OCC3 (stereo not given) [Etodolac] | 103 ± 15% | – |
| CCCCC(=O)O[C@]1(C(=O)CO)CC[C@H]2[C@@H]3CCC4=CC(=O)CC[C@]4(C)[C@H]3[C@@H](O)C[C@@]21C | 124% | – |
| CCCCC(=O)O[C@]1(C(=O)CO)CC[C@H]2[C@@H]3CCC4=CC(=O)CC[C@]4(C)[C@H]3[C@@H](O)C[C@@]21C [Hydrocortisone 17-valerate] | – | 109% |
| OC1CCN2Cc3ccccc3N=C12 (stereo not given) [Peganine] | – | 98% |
| C[C@]12CC[C@@H]3c4ccc(O)cc4CC[C@H]3[C@@H]1C[C@@H](O)[C@@H]2O | 112% | – |
| C[C@]12CC[C@@H]3c4ccc(O)cc4CC[C@H]3[C@@H]1C[C@@H](O)[C@@H]2O [Estriol] | 102 ± 6.2% | – |
| CN(C)CCCO[C@@H]1[C@H]2OC(C)(C)O[C@H]2O[C@@H]1[C@H](O)CO [Amiprilose hydrochloride] | 96.7 ± 3.6% | – |
| CN(C)CCCO[C@@H]1[C@H]2OC(C)(C)O[C@H]2O[C@@H]1[C@H](O)CO | 102% | – |
| C=CC1=C(C(=O)O)N2C(=O)[C@@H](NC(=O)/C(=N\OCC(=O)O)c3csc(N)n3)[C@H]2SC1 [Cefixime] | 127% | – |
| C=CC1=C(C(=O)O)N2C(=O)[C@@H](NC(=O)/C(=N\OCC(=O)O)c3csc(N)n3)[C@H]2SC1 | 106% | – |
| OCCOCCN1CCN(C(c2ccccc2)c2ccc(Cl)cc2)CC1 (stereo not given) | 104% | – |
| OCCOCCN1CCN(C(c2ccccc2)c2ccc(Cl)cc2)CC1 (stereo not given) [Hydroxyzine dihydrochloride] | 101% | – |
| O=C1NCC=C2c3cccc(Cl)c3NC12 (stereo not given) [8-Chlro-1-tetrahydronorharmanone] | – | 91.2% |
| O=C1N(c2ccccc2)c2ccccc2C1(Cc1ccncc1)Cc1ccncc1 | 107% | – |
| O=C1N(c2ccccc2)c2ccccc2C1(Cc1ccncc1)Cc1ccncc1 [Linopirdine] | 104% | – |
| CN(C)CCC(c1ccc(Br)cc1)c1ccccn1 (racemic) [(±)-Brompheniramine maleate] | 97.7% | – |
| CC(=O)Nc1nc2nc[nH]c2c(=O)[nH]1 [N-2-Acetylguanine] | – | 92.7% |
| Cc1ccccc1N1C(=O)c2cc(S(N)(=O)=O)c(Cl)cc2NC1C (stereo not given) [Metolazone] | 98.6 ± 14% | – |
| Cc1ccccc1N1C(=O)c2cc(S(N)(=O)=O)c(Cl)cc2NC1C (stereo not given) | 102% | – |
| CCCn1c(=O)c2[nH]c(-c3ccc(S(=O)(=O)O)cc3)nc2n(CCC)c1=O [1,3-Dipropyl-8-p-sulfophenylxanthine] | 102% | – |
| Cc1cc(-n2c(=O)[nH]c(=O)n(C)c2=O)ccc1Oc1ccc(SC(F)(F)F)cc1 [Toltrazuril] | 96.6 ± 2.7% | – |

| SMILES | cell viability (compound concentration: 3 uM) | cell viability [1] |
| --- | --- | --- |
| Cc1cc(-n2c(=O)[nH]c(=O)n(C)c2=O)ccc1Oc1ccc(SC(F)(F)F)cc1 | 107% | – |
| CC(=O)Oc1ccc(-c2coc3cc(OC4OC(COC5OCC(OC(C)=O)C(OC(C)=O)C5OC(C)=O)C(OC(C)=O)C(OC(C)=O)C4OC(C)=O)cc(OC(C)=O)c3c2=O)cc1 (stereo not given) [Genistein -7-O-Glc-Xyl, Acetate] | – | 114% |
| COc1cccc(C(=O)NNC2OC(CO)C(O)C2O)c1 (stereo not given) | – | 102% |
| COc1ccc2[nH]c([S+]([O-])Cc3ncc(C)c(OC)c3C)nc2c1 (stereo not given) [Omeprazole] | 94.9 ± 3.5% | – |
| COc1ccc2[nH]c([S+]([O-])Cc3ncc(C)c(OC)c3C)nc2c1 (stereo not given) | 91.9% and 104% | – |
| Nc1nc(SCc2ccc([N+](=O)[O-])cc2)c2ncn([C@@H]3O[C@H](CO)[C@H](O)C3O)c2n1 (stereo partly drawn) [S-(4-Nitrobenzyl)-6-thioguanosine] | 106% | – |
| CC(=O)Oc1c(C)c(C)c2c(c1C)CCC(C)(CCCC(C)CCCC(C)CCCC(C)C)O2 (stereo not drawn) [alpha-TOCHOPHERYL ACETATE] | 109% | – |
| CC(=O)Nc1ccc(O)cc1 | 112% | – |
| CC(=O)Nc1ccc(O)cc1 [Acetaminophen] | 90.4% | – |
| Brc1c(NC2=NCCN2)ccc2nccnc12 | 114% | – |
| CN(C)CCOC(=O)COc1ccc(Cl)cc1 | 106% | – |
| CN(C)CCOC(=O)COc1ccc(Cl)cc1 [Centrophenoxine hydrochloride] | 105% | – |
| CN(C)CCOC(=O)COc1ccc(Cl)cc1 [Meclofenoxate hydrochloride] | 129% | – |
| O=C1CC(c2ccc(O)cc2)Oc2ccccc21 (stereo not given) [4'-hydroxyflavanone] | – | 101% |
| OC(CCN1CCCCC1)(c1ccccc1)C1CCCCC1 (stereo not given) [Trihexyphenidyl-D,L Hydrochloride] | 108% | – |
| OC(CCN1CCCCC1)(c1ccccc1)C1CCCCC1 (stereo not given) | 106% | – |
| OC(CCN1CCCCC1)(c1ccccc1)C1CCCCC1 (stereo not given) [Trihexyphenidyl hydrochloride] | 115% | – |
| N=C(N)N/N=C/c1c(Cl)cccc1Cl | 103% | – |
| N=C(N)N/N=C/c1c(Cl)cccc1Cl [Guanabenz] | 106% | – |
| N=C(N)N/N=C/c1c(Cl)cccc1Cl [Guanabenz acetate] | 99.4 ± 8.8% | – |
| Cc1ccc2c(Cl)cc(Cl)c(O)c2n1 | 111% | – |
| CCCc1nc(C(C)(C)O)c(C(=O)O)n1Cc1ccc(-c2ccccc2-c2nnn[nH]2)cc1 [Olmesartan] | 104 ± 2% | – |

| SMILES | cell viability (compound concentration: 3 uM) | cell viability [1] |
| --- | --- | --- |
| N#C/C(=C\c1ccc(O)c(O)c1)C(=O)NCCCNC(=O)/C(C#N)=C/c1ccc(O)c(O)c1 [Tyrphostin AG 537] | 114% | – |
| O=C(OCc1ccccc1)c1ccccc1 | 103% | – |
| O=C(CC(=O)c1ccccc1)c1ccccc1 | 84.9% | – |
| CO[C@@H]1[C@H](O)[C@@H](CO)O[C@H]1n1ccc(N)nc1=O [2'-O-Methylcytidine] | – | 91.5% |
| CCC(=O)OCC(=O)[C@@]1(OC(=O)CC)[C@H](C)C[C@H]2[C@H]3[C@H]([C@@H](O)C[C@@]21C)[C@@]1(C)C=CC(=O)C=C1C[C@H]3Cl [Alclometasone dipropionate] | 147% | – |
| CN(CCOc1ccc(CC2SC(=O)NC2=O)cc1)c1ccccn1 (stereo not given) [Rosiglitazone] | 128% | – |
| CN(CCOc1ccc(CC2SC(=O)NC2=O)cc1)c1ccccn1 (stereo not given) | 105% and 99.5% and 113% | – |
| CN(C)CC[C@@H](c1ccc(Cl)cc1)c1ccccn1 | 109% and 104% | – |
| COc1ccc(-c2oc3ccccc3c(=O)c2O)cc1 [4'-Methoxyflavonol] | – | 91.9% |
| COC(=O)C(N)CS (stereo not given) | 109% | – |
| COc1cccc(-c2cc(=O)c3c(O)cccc3o2)c1 [5-Hydroxy-3'-methoxyflavone] | – | 90.6% |
| CC(N)C12CC3CC(CC(C3)C1)C2 (stereo not given) | 105% | – |
| CC(N)C12CC3CC(CC(C3)C1)C2 (stereo not given) [Rimantadine] | 99.3 ± 12% | – |
| c1ccc2c(c1)CCCc1cc(NCCN3CCOCC3)nnc1-2 | 123% | – |
| Nc1cc(-c2ccncc2)c[nH]c1=O [Amrinone] | 103% | – |
| C[C@H]1C[C@@H]2[C@H]([C@@H](O)C[C@@]3(C)[C@H]2CC[C@]3(O)C(=O)COC(=O)CCC(=O)O)[C@@]2(C)C=CC(=O)C=C12 | 115% | – |
| O=C(O)/C(=C\c1c(C(=O)O)[nH]c2cc(Cl)cc(Cl)c12)c1ccccc1 | 118% | – |
| CN(C)[C@@H]1C(O)=C(C(N)=O)C(=O)[C@@]2(O)C(O)=C3C(=O)c4c(O)ccc(Cl)c4[C@@H](O)[C@H]3C[C@@H]12 | 99.6% | – |
| CN(C)[C@@H]1C(O)=C(C(N)=O)C(=O)[C@@]2(O)C(O)=C3C(=O)c4c(O)ccc(Cl)c4[C@@H](O)[C@H]3C[C@@H]12 [Demeclocycline hydrochloride] | 114 ± 21% | – |
